In US20240307372A1, “COMPOSITIONS AND METHODS TO IMPROVE BENEFIT OF SUBOPTIMALLY ADMINISTERED THERAPEUCTICS FOR THE TREATMENT OF BENIGN AND NEOPLASTIC DISEASES, INFECTIONS, INFLAMMATORY, METABOLIC AND IMMUNOLOGIAL DISEASES” (priority 2023, published 2024):

Test system: K562 cells
Assay: Protein concentration in K562 cell lysate after Tetrandrine exposure (BCA protein assay)
Type: cell-based, human
Conditions: 24 hours

Question: Which “Protein Recovered” value (0.1 μM) does the source give for “6,6′,7,12-tetramethoxy-2,2′-dimethyl-berbaman [ES-3000]” here?
Answer: 1.1 mg

Question: And the “Protein Recovered” value (1 μM)?
Answer: 1.1 mg

Question: And the “Protein Recovered” value (5 μM)?
Answer: 1.0 mg

Question: And the “Protein Recovered” value (10 μM)?
Answer: 1.1 mg

Question: What about the “Protein Recovered” value (20 μM) of the same substance?
Answer: 1.0 mg

Question: And the “Protein Recovered” value (40 μM)?
Answer: 0.9 mg
